In PubChem BioAssay AID540256 (National Center for Advancing Translational Sciences (NCATS), 2011):
Screen size: about 300,000 compounds; about 3,700 (1.2%) were called active. This list was built around the results that the source calls inconclusive (neither active nor inactive); the mix of calls is not that of the screen. Calls come from the whole dose curve; tested in HEK293 cells. A potency beside an inconclusive call is a rough fit, not a confirmed value.

Test: qHTS for Inhibitors of binding or entry into cells for Lassa Virus; note: nearly all actives have a fitted effect of over 50% in size
Settings: Lassa virus pseudotype entry inhibition, cell reporter; activity change, negative = inhibition: at 37.9 µM (top of the series) unless noted
% is set by controls: 0 for no effect and ±100 for the full control effect; potency is the fitted concentration of half-maximal effect.

SMILES | activity change, negative = inhibition | Potency
CCOC(=O)Cc1csc(NC(=O)COc2ccccc2OC)n1 | inactive: 2.68% | 
COc1ccc(S(=O)(=O)N(CC(=O)N2CCC(C)CC2)c2ccc(C)cc2)cc1 |  | active: 7.08 µM
CCCCNC(=O)C(CC)Sc1nnc(-c2ccc(OC)c(OC)c2)c(-c2ccc(OC)c(OC)c2)n1 (centres undefined) | inactive: -11.7% [at 46.1 µM] | 
Cc1ccc(-c2ccc(=O)n(C(C)C(=O)Nc3ccccc3Cl)n2)cc1C (centres undefined) | inactive: 5.58% [at 46.1 µM] | 
Cc1cc(-c2cccc([N+](=O)[O-])c2)nc2ccccc12 |  | inconclusive: 0.631 µM [inhibitor, single point]
Cc1cc(C)c(/C=C/c2onc(C)c2S(=O)(=O)N2CCC(C(=O)N3CCN(c4ccccc4)CC3)CC2)c(C)c1 |  | inconclusive: 35.5 µM [inhibitor, single point]
C/C(=N/Nc1nc(C)cc(-c2ccccc2)n1)c1ccco1 |  | inconclusive: 20.6 µM [activator, partial curve, poor fit]
C=CCOc1ccc(/C=C2\SC(=S)N(N3CCOCC3)C2=O)cc1 | inactive: -1.97% | 
COc1ccc(C(=O)NC2CCCCCC2)cc1S(=O)(=O)Nc1ccc(Br)cc1 | inactive: -5.94% | 
CC(C)(C)n1nnnc1C(c1ccncc1)N1CCN(C2CCCCC2)CC1 (centres undefined) | inactive: -3.16% | 
CCCn1nc(NS(=O)(=O)c2ccc(F)cc2)c2cc3ccccc3nc21 |  | inconclusive: 0.562 µM [inhibitor, full curve, poor fit]
O=C(NC1CCCCC1)c1cc(-c2ccccc2Cl)on1 | inactive: -7.57% | 
Cc1ccc(-c2nn3c(C)nnc3c3ccccc23)cc1S(=O)(=O)NC(C)c1ccccc1 (centres undefined) |  | inconclusive: 22.4 µM [inhibitor, single point]
CN(CC(=O)NCC1CCCCC1)S(=O)(=O)c1ccc(Cl)cc1 | inactive: 1.51% | 
Cc1ccc2c(=O)cc(C(=O)Nc3nnc(C)s3)oc2c1 |  | inconclusive: 0.501 µM [activator, full curve, poor fit]
CCC(=O)N1CCc2cc(S(=O)(=O)Nc3ccccc3C)ccc21 | inactive: -6.24% | 
Cc1cccc(NC(=S)N/N=C2/CCCCc3ccccc32)c1 |  | inconclusive: 14.1 µM [inhibitor, partial curve, poor fit]
COc1cc(/C=N/NC(=O)CN2CCCCC2)ccc1OCc1ccc(Br)cc1 |  | inconclusive: 3.26 µM [activator, full curve]
O=C(N/N=C/c1cccnc1)c1ccc(NC(=O)C(c2ccccc2)c2ccccc2)cc1 |  | inconclusive: 3.16 µM [inhibitor, partial curve, poor fit]
CC(=O)c1cccc(OCc2cc(C(=O)N(C)Cc3cnccn3)no2)c1 |  | inconclusive: 2.82 µM [activator, full curve]
COc1ccc(-c2cc(C(=O)Nc3c(C)nn(Cc4ccc(F)cc4)c3C)no2)cc1OC | inactive: -11.5% [at 46.1 µM] | 
CCOCCN1CCN(c2c(CC)c(C)nc3cc(-c4cc(OC)cc(OC)c4)nn23)CC1 |  | inconclusive: 35.5 µM [inhibitor, single point]
CN(C)CCCNC(=O)c1ccc(Cl)c(S(=O)(=O)N2CCCCCC2)c1 | inactive: -0.626% | 
COc1cc2nc(N(CCCN(C)C)C(=O)c3ccc(S(=O)(=O)N4CCc5ccccc54)cc3)sc2cc1OC |  | inconclusive: 10 µM [inhibitor, partial curve, poor fit]
CCOC(=O)c1cc(C(=O)NN)c(C)nc1C | inactive: 0.995% | 

Retrieved by compound from above (4):
SMILES | activity change, negative = inhibition | Potency
CCOC(=O)Cc1csc(NC(=O)COc2ccccc2OC)n1 | inactive: 2.68% | 
CCOC(=O)c1cc(C(=O)NN)c(C)nc1C | inactive: 0.995% | 
CN(C)CCCNC(=O)c1ccc(Cl)c(S(=O)(=O)N2CCCCCC2)c1 | inactive: -0.626% | 
Cc1cccc(NC(=S)N/N=C2/CCCCc3ccccc32)c1 |  | inconclusive: 14.1 µM [inhibitor, partial curve, poor fit]

Later entries

SMILES | activity change, negative = inhibition | Potency
O=C1CSC(=S)N1c1cccc(O)c1 |  | inconclusive: 20 µM [inhibitor, single point]
O=C(NNC(=S)Nc1ccccc1)c1ccccc1[N+](=O)[O-] |  | inconclusive: 2.24 µM [activator, partial curve, poor fit]
Cc1ccc(NC(=S)NNc2ncc(C(F)(F)F)cc2Cl)c(C)c1 | inactive: -29.4% | 
Cc1c(C(=O)c2ccc(N(C)C)cc2)c2ccccn2c1CCC#N |  | inconclusive: 17.8 µM [inhibitor, single point]
Cc1onc(-c2ccccc2)c1C(=O)Nc1sc2c(c1C#N)CCC(C)C2 (centres undefined) |  | inconclusive: 29.1 µM [inhibitor, single point]
CCOC(=O)C1(CC2CCCCO2)CCN(Cc2cc3ccccc3[nH]2)CC1 (centres undefined) |  | active: 10 µM
C=CCn1c(SCC(=O)NCc2ccco2)nc2sc3c(c2c1=O)CCCC3 | inactive: -6.62% | 
Cc1cc(F)ccc1NC(=O)c1sc2nc(-c3cccs3)ccc2c1N | inactive: 20.5% [at 46.1 µM] | 
Cc1nn(C)c2c1c(C(F)(F)F)cc(=O)n2CC(=O)NCc1ccccc1Cl | inactive: -15.8% [at 46.1 µM] | 
Cc1cc(NC(=O)C(C)SCC(=O)Nc2cc(C(F)(F)F)ccc2N2CCOCC2)no1 (centres undefined) | inactive: -25.3% | 
Cc1ccc(SCC(=O)c2cc(C)c(OC(=S)N(C)C)c(C)c2)cc1 |  | inconclusive: 35.5 µM [inhibitor, single point]
Cc1cccc(Oc2c([N+](=O)[O-])c(=O)n(C)c3ccccc23)c1 |  | inconclusive: 31.6 µM [inhibitor, single point]
Cc1cc(C(=O)NCc2cccnc2)no1 | inactive: -29.9% [at 14.3 µM] | 
O=C(O)c1ccc(NS(=O)(=O)/C=C/c2ccccc2)cc1 | inactive: 7.51% | 
O=C(Nc1ccccc1)c1cc([N+](=O)[O-])ccc1N1CCCCC1 |  | inconclusive: 0.562 µM [inhibitor, full curve, poor fit]
O=C(Nc1ccncc1)c1ccc2ccccc2c1 | inactive: 0.0771% | 
CN=C(Nc1cccc(Cl)c1)SC1CC(=O)N(c2ccc(OC)cc2)C1=O (centres undefined) |  | inconclusive: 35.5 µM [inhibitor, single point]
COc1ccc(OCc2nnc(-c3ccccc3)o2)cc1 |  | inconclusive: 4.47 µM [activator, full curve, poor fit]
C=CCCN(Cc1ccc(C)cc1)S(=O)(=O)C=C | inactive: -0.44% [at 46.1 µM] | 
Cc1ccc(CCNC(=O)C2CCC(=O)N2Cc2cccnc2)cc1 (centres undefined) |  | inconclusive: 10 µM [inhibitor, partial curve, poor fit]
CCOc1ccc(/C=C(\C(=O)O)c2ccc(S(=O)(=O)N3CCOCC3)s2)cc1OC |  | inconclusive: 18.4 µM [activator, partial curve, poor fit]
COc1ccc(S(=O)(=O)Nc2cc(-c3cn4ccccc4n3)ccc2C)cc1 | inactive: 17% [at 46.1 µM] | 
CCN(CC)S(=O)(=O)c1cccc(-c2nnc(SCC#N)n2Cc2ccccc2)c1 |  | inconclusive: 8.2 µM [inhibitor, partial curve, poor fit]
Cc1ccc(S(=O)(=O)CCC(=O)NCc2ccco2)cc1 |  | inconclusive: 35.5 µM [activator, single point]
Cn1c(=O)[nH]c(=O)c2c1nc(N1CCCCC1)n2CCCSc1nnnn1-c1ccccc1 | inactive: -11.5% | 

SMILES | activity change, negative = inhibition | Potency
CCOC(=O)N1CCN(c2c(N3CCN(c4ccc(F)cc4)CC3)c(=O)c2=O)CC1 |  | inconclusive: 10 µM [inhibitor, partial curve, poor fit]
O=C(O)Cc1ccc(NC(=O)c2ccc3c(c2)C(=O)N(CC2CCCO2)C3=O)cc1 (centres undefined) | inactive: -15.8% | 
COc1ccc2c(Sc3ccc(Cl)cc3)c(C(=O)NCCCN3CCCCC3)[nH]c2c1 | inactive: -19.4% [at 46.1 µM] | 
CCCCOc1ccc(C(=S)N2CCC(C(N)=O)CC2)cc1 | inactive: 8.35% [at 46.1 µM] | 
Oc1oc(-c2ccccc2)nc1C=NCc1ccccc1 |  | inconclusive: 6.51 µM [activator, single point]
Cc1cccc(NC(=O)CSc2nc3c([nH]c4ccccc43)c(=O)n2C)c1 |  | inconclusive: 8.91 µM [inhibitor, partial curve, poor fit]
CN1CCc2cccc3c2C1Cc1ccc(O)c(O)c1-3 (centres undefined) | inactive: -0.187% | 
CC(C)(C)c1ccc(Oc2cccc(C3CC(=O)C(C4NCCc5ccccc54)C(=O)C3n3cncn3)c2)cc1 (centres undefined) |  | inconclusive: 3.55 µM [inhibitor, single point]
CC(C)N(C(=O)Cn1cc(S(=O)(=O)Cc2ccc(C(F)(F)F)cc2)c2ccccc21)C(C)C |  | inconclusive: 35.5 µM [inhibitor, single point]
Cc1nc2c(nnn2Cc2c(Cl)cccc2Cl)c(=O)[nH]1 | inconclusive: 6.11% [activator] | 
Cc1ccc(-c2csc(NC(=S)NC(=O)c3cc4ccccc4o3)n2)cc1 | inactive: 4.58% | 
CCn1nc(NC(=O)c2ccco2)c2cc3ccccc3nc21 |  | inconclusive: 23.1 µM [inhibitor, single point]
O=C(CSc1nccn(-c2ccc3c(c2)OCCO3)c1=O)Nc1ccccc1 |  | inconclusive: 20 µM [activator, partial curve, poor fit]
CC#CCOC(=O)c1c(C)nc2sc3c(c2c1N)CCC(O)C3 (centres undefined) |  | inconclusive: 3.26 µM [activator, partial curve, poor fit]
COc1cc(N)ccc1NC(=O)c1cccs1 | inactive: 5.02% | 
O=c1[nH]c(-c2ccccn2)nc2sc(-c3ccccc3)cc12 |  | active: 2.24 µM
CC1CCN(C(=O)c2cc(-c3ccc(Cl)cc3)on2)CC1 |  | inconclusive: 1.58 µM [activator, partial curve, poor fit]
O=C(NCc1ccccc1)c1cccc(S(=O)(=O)N2CCCCC2)c1 |  | inconclusive: 35.5 µM [inhibitor, single point]
COc1ccc(C(=O)/C=C/Nc2ccc([N+](=O)[O-])cc2C)cc1OC | inactive: 12.4% | 
CCCCc1n[nH]c2c1C(=O)CC(C)(C)C2 | inactive: 12.6% | 
O=C(c1cc(-c2cccs2)on1)N1CCCCC1 |  | inconclusive: 3.98 µM [activator, partial curve, poor fit]
Cc1cc(C)nc(SCc2ccc(C(=O)N/N=C/c3ccco3)cc2)n1 | inactive: -0.177% | 
Cc1ccccc1-c1nc(CN2CCC(C(=O)NCCN3CCOCC3)CC2)c(C)o1 | inactive: 2.93% [at 46.1 µM] | 
CCOc1ccc2oc(C(=O)NC(C)(C)CC)c(C)c2c1 |  | inconclusive: 35.5 µM [inhibitor, single point]
